Experimental data reported in patent publication US20250042920A1 (OCEAN UNIVERSITY OF CHINA, priority 2021, published 2025).
At least one compound was matched to its structure with a doubt left.

Sequences of proteins named here, by UniProt entry; tags and fusion partners are left off. A change or cut given only in a name is not applied to a line headed by its entry.
UniProt Q9BUB5: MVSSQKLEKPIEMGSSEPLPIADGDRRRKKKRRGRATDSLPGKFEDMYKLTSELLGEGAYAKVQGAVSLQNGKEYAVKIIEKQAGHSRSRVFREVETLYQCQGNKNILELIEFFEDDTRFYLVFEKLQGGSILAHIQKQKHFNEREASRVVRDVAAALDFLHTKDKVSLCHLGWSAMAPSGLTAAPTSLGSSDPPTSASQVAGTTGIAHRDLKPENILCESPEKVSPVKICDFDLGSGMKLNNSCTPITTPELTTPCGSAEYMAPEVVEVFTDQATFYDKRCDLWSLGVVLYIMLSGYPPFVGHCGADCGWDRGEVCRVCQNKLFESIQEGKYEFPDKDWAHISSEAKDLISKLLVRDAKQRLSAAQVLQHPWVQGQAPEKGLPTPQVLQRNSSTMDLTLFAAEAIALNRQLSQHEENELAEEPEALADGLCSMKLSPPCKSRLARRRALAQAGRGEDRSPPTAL
UniProt Q9HBH9: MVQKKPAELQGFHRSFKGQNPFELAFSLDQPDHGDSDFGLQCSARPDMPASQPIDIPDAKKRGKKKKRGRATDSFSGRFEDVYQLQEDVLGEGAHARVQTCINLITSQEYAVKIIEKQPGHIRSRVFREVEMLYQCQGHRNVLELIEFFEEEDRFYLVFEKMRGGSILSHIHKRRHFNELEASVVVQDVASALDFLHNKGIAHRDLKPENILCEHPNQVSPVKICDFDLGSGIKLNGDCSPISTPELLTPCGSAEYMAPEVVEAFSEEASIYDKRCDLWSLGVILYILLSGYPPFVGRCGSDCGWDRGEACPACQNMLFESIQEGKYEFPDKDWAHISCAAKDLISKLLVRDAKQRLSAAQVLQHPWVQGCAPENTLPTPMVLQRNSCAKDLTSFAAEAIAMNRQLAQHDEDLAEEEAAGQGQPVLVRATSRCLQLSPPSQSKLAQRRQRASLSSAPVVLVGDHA

Columns and labels:
MNK1 = MNK1 (Homo sapiens, UniProt Q9BUB5); assay: MNK1 kinase inhibition assay (LANCE Ultra kinase activity assay, PerkinElmer); type: biochemical; conditions: inhibition rate at 1000 nM compound; 450 μM ATP, 60 min, 25° C.
Method: (§1) MNK1 and MNK2 kinase inhibition assays were performed using LANCE Ultra kinase activity assay developed by PerkinElmer. […] The test steps are as follows: At 25° C., 1.00 ng MNK1 or 0.05 ng MNK2 was prepared with different concentrations (10000, 1000, 100, 10, 1 nM) of the tested compound to form a total volume of 10 μL reaction mixture (MNK1: 12.5 nM CREB, 450 μM ATP, 2 mM DTT, 1× buffer; MNK2: 12.5 nM CREB, 100 μM ATP, 2 mM DTT, 1×buffer), and incubation for 60 min. The reaction was terminated by adding 5 μL EDTA/Detection buffer and 5 μL Eu-CREB/Detection buffer. The ratio of HTRF signals at 615 nm and 665 nm was detected after 60 min of incubation. The inhibition rate was calculated by measuring the compounds at 1000 nM.
(§2) Then five different concentrations (10000, 1000, 100, 10, 1 nM) of the tested compounds were measured, and the IC50 value was calculated according to the inhibition rate fitting curve.

MNK2 = MNK2 (Homo sapiens, UniProt Q9HBH9); assay: MNK2 kinase inhibition assay (LANCE Ultra kinase activity assay, PerkinElmer); type: biochemical; conditions: inhibition rate at 1000 nM compound; 100 μM ATP, 60 min, 25° C.
Method: as §1, §2

| SMILES | Inhibitory activity(1 μM) MNK1 (MNK1) | Inhibitory activity(1 μM) MNK2 (MNK2) |
| --- | --- | --- |
| O=C(NCCCN1CCCC1)c1ccc(-c2nn3cc(-c4ccccc4)nc3s2)cc1 [Compound 57, 4-(6-phenylimidazole [2,1-b][1,3,4]thiadiazole-2-yl)-N-(3-(tetrahydropyrrolidyl)propyl) benzamide] | − | − |
| O=C(NCCO)c1ccc(-c2nn3cc(-c4ccccc4)nc3s2)cc1 [Compound 59, N-(2-hydroxyethyl)-4-(6-phenylimidazolegroup [2,1-b][1,3,4]thiadiazole-2-yl) benzamide] | − | − |
| CC(=O)N1CCN(c2ccc(-c3nn4cc(-c5ccc(C#N)cc5)nc4s3)cc2)CC1 [Compound 61, 4-(2-(4-(4-methyl-carbonyl)piperazine-1 phenyl)imidazole [2,1-b][1,3,4]thiadiazole-6-yl) Cyanobenzene] | − | − |
| CN(C)CC(C)(C)CNC(=O)c1ccc(-c2nn3cc(-c4ccccc4)nc3s2)cc1 [Compound 56, N-(3-(dimethylamine)-2,2-dimethylpropyl)-4-(6-phenylimidazole [2,1-b][1,3,4]thiadiazole-2-yl) benzamide] | − | − |
| O=C(NCCc1ccncc1)c1ccc(-c2nn3cc(-c4ccc(F)cc4)nc3s2)cc1 [Compound 58, 4-(6-(4-fluorinatedphenyl)imidazole [2,1-b][1,3,4]thiadiazole-2-yl)-N-(2-(pyr-idine-4-yl)ethyl) benzamide] | − | − |
